Experimental findings from US20120258482A1, “PCNA […]” (INDIANA UNIVERSITY RESEARCH AND TECHNOLOGY CORPORATION, priority 2009, published 2012) are described below.

For the data set, the system named is PCNA isoform in MCF7 cells (p53 wild-type). In words: 2D-PAGE anti-PCNA immunoblot after DOX exposure, MCF7. Format: cell-based, human. Particulars: 5 μM DOX. The method, then: FIG. 7A is a Western blot analysis of p53 wild-type (MCF7) and p53-mutant (MDA-MB-468) breast carcinoma cell lines exposed to 5 μM DOX for the indicated times. Cell extracts (200 μg) were resolved by 2D-PAGE and immunoblotted with anti-PCNA antibodies. In FIG. 7B extracts from MCF7 cells (50 μg) treated with 5 μM DOX were separated by 12% SDS-PAGE and immunoblotted with anti-p21WAF1 antibodies. FIG. 7C is a Western blot analysis of glutathione-immobilized GST-p21 and GST-PIP (a.a. 139-160) fusion proteins incubated with untreated MCF7 cell extracts for 2 h at 4° C. and the pull-down fractions were resolved by 2D-PAGE and Western blotted for PCNA. PCNA isoforms were isolated from MCF7 extracts by incubation with PIP-affinity beads for ˜2 h and analyzed by 2D-PAGE using pH 4-7 IPG strips. Colloidal Coomassie stained spots (See FIG. 7D) were excised from the gel, trypsin digested, and sequenced by LC-MS/MS.
2D-PAGE and mass spectrometry. Isoelectric focusing was performed using IPG strips and an IEF cell (BioRad) as previously described (Hoelz, D. J. et al. Proteomics 6, 4808-4816, 2006). […] Anti-PCNA (PC10) antibodies were obtained from Santa Cruz Biotech and anti-WAF1 (DF10) were from EMD Biosciences.
Although the description of Arm1 identifies a novel posttranslational mechanism in eukaryotic cells, its biological significance was still unclear. […]
(Immunoblotting shows a protein as a band on a membrane.)

Regarding `COc1cccc2c1C(=O)c1c(O)c3c(c(O)c1C2=O)C[C@@](O)(C(=O)CO)C[C@@H]3O[C@H]1C[C@H](N)[C@H](O)[C@H](C)O1` [DOX, doxorubicin], the “time of appearance of the PCNA isoform after exposure” value is reported as 4 h. The “duration of the PCNA isoform” value (data not shown) is reported as ~15 m.
